From article PMC3514159
These are yes or no findings as the source states them, for the method shown. In cells and extracts the contact can be indirect. Some results given as binding are weak or reduced against the parent protein; the word gives no strength.

Amino acid sequences for entries named in this document (tags omitted).
UniProt P49639: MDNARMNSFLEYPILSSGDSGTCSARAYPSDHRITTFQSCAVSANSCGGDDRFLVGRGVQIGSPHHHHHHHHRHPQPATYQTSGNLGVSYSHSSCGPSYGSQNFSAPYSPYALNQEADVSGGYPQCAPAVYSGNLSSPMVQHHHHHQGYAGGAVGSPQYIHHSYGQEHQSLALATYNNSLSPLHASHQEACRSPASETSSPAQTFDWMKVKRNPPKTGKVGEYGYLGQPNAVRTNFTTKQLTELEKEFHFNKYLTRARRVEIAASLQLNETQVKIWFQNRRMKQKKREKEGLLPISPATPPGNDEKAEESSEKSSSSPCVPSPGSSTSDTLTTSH
UniProt P09022: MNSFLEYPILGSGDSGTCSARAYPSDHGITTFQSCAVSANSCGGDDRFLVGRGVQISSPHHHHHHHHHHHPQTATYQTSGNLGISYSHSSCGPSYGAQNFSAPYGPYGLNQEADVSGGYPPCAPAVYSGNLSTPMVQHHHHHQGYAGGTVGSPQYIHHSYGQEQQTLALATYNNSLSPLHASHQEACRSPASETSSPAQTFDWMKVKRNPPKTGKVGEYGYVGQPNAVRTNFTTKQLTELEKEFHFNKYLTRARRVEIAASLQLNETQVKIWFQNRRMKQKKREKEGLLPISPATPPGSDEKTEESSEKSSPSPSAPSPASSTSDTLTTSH

Assays:
Assay in all cases: pull-down; GST-hORF and FLAG-Hoxa1 co-expressed in COS7 or HEK293T; cleared lysate (Tris-HCl pH7.5 20mM, NaCl 120mM, EDTA 0.5mM, NP40 0.5%, glycerol 10%) overnight on glutathione-agarose beads, 3 washes; anti-FLAG western blot
leupaxin (human) = target: T1, leupaxin (human) (UniProt O60711)
T1 sequence: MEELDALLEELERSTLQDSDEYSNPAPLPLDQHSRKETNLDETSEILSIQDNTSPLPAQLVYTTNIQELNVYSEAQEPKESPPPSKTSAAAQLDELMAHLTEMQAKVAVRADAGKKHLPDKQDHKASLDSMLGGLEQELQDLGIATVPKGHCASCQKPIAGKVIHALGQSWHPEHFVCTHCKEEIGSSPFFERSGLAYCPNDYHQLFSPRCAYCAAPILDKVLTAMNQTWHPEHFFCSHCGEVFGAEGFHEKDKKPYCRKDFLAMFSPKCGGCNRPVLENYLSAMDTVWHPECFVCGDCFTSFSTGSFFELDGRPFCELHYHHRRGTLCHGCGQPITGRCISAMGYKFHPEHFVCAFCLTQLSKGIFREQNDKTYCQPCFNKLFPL

[1] = target: T2, keratin associated protein 4-12 (human) (UniProt Q9BQ66)
T2 sequence: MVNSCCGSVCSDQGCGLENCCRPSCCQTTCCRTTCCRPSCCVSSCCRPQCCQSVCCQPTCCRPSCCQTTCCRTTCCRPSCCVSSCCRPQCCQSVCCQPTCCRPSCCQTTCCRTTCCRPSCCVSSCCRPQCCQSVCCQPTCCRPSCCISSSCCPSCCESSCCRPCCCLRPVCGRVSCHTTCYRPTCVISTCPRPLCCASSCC

[2] = target: T3, PR domain containing 14 (human) (UniProt Q9GZV8)
T3 sequence: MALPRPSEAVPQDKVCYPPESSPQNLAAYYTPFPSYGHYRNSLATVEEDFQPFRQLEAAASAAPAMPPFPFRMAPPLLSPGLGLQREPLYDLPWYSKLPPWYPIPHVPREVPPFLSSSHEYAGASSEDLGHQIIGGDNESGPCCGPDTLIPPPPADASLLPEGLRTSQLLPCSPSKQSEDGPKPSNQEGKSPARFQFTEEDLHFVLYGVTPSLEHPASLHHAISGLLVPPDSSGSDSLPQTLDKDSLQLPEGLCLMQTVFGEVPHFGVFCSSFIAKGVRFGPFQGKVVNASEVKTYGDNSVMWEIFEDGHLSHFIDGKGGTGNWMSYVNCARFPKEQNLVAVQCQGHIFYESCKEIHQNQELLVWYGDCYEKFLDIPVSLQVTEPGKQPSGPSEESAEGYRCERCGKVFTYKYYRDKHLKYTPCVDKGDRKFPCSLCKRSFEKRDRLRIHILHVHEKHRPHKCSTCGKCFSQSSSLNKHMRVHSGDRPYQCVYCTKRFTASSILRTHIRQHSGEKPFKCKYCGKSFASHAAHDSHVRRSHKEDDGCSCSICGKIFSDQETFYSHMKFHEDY

homeobox A1 (human) = homeobox A1 (human) (UniProt P49639)
[3] = target: T4, RAB33A (member RAS oncogene family) (human) (UniProt Q14088)
T4 sequence: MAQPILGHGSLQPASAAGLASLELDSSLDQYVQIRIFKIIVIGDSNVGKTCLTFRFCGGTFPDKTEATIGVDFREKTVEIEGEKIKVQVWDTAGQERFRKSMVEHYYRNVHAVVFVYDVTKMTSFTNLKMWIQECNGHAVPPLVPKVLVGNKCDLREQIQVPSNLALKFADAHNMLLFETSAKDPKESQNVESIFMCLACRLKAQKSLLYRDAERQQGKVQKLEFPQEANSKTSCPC

[4] = target: T5, zinc finger and BTB domain containing 16 (human) (UniProt Q05516)
T5 sequence: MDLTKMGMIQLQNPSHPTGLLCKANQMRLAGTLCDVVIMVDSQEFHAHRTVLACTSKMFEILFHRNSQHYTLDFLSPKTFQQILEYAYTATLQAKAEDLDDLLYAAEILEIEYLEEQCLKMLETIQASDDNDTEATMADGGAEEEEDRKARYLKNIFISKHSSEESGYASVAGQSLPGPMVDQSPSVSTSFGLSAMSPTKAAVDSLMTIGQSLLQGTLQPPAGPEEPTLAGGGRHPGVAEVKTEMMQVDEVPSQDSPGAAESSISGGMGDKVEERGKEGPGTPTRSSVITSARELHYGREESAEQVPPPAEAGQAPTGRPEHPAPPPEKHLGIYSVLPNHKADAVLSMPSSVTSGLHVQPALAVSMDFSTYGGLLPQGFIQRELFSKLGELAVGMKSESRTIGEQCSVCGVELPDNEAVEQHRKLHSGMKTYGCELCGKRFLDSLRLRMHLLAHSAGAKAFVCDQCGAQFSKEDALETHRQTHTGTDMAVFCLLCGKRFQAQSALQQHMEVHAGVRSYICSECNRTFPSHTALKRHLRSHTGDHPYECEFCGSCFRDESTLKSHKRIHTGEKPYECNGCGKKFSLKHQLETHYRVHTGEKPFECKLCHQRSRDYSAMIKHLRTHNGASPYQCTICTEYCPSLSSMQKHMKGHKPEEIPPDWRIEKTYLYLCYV

Measured: binding

FLAG-Hoxa1 (from UniProt P09022 1-331)
binds: leupaxin (human) | [1] | [2] | homeobox A1 (human) | [3] | [4]
